These are yes or no findings as the source states them, for the method shown. For some assays here: In cells and extracts the contact can be indirect. Some entries that bind do so weakly or less than the wild type.
B1: mouse monoclonal antibody #12 (antibody, V domains shown)
VH: EVQLHQFGAELVKPGASVKISCKASGYTFTDYNMDWVKQSHGKSLEWIGDINPNYDSTSYNQKFKGKATLTVDKSSSTAYMELRSLTSEDTAVYYCARSRSYDYEGFAYWGQGTLVTVSA
VL: DIQMTQSPASLSASVGETVTITCRASGNIHNYLAWYQQKQGKSPQLLVYNAKTLADGVPSRFSGSGSGTQYSLKINSLQPEDFGSYYCQHFWSTLTFGAGTKLELKR
B2: mouse monoclonal antibody #4 (antibody, V domains shown)
VH: GAELVRSGASVKMSCKASGYSFTDYNMYWVKQTPGQGLEWIGYIYPGNGGTNYNQKFKGKATLTADTSSSTAYMQISSLTSEDSAVYFCARDYDDGGYAMDYWGQGTTVTVSS
VL: DIQMTQSPASLSASVGETVTITCRASGNIHNYLTWYQQKQGKSPQLLVYNAKTLADGVPSRFSGSGSGTQYSLKINRLQPEDFGSYYCQHFWNIPWTFGGGTKLNSR
B3: mouse monoclonal antibody #5 (antibody, V domains shown)
VH: DAELVKPGASVKISCKASGYTFTDHSIHWVQQKPEQGLEWIGYISPGNGNIKYNEKFKGKATLTADKSSSTAYMQLNSLTSEDSAVYFCKRSLGRGGPYYFDYWGQGTTVTVSS
VL: DIVLTQAAPSLPVTPGESVSISCRSSKSLLHSNGNTYLYWFLQRPGQSPQLLIYRMSNLASGVPDRFSGSGSGTAFTLRISRVEAEDVGVYYCMQHREYPVTFGSGPN
B4: chicken monoclonal antibody #1 (antibody, V domains shown)
VH: AVTLDESGGGLQMSRGGLSLVCKASGFDFSSYQMNWIRQAPGKGLEFVAAINKFGNSTGHGAAVKGRVTISRDNGQSTVRLQLNNLRAEDTAIYFCTKHAYGYCGSGTWCAAGEIDAWGHGTEVIVSS
VL: QAASTQPSSVSANPGETVEITCSGGGSYSYGWFQQKSPGSAPVTVIYYNNKRPSDIPSRFSGSKSGSTGTLTITGVQADDEAVYYCGSGDSTDTAVFGAGTTLTVLG
B5: chicken monoclonal antibody #2 (antibody, V domains shown)
VH: AVTLDESGGGLQTPGGGLSLVCKASGFTFSSFDMGWVRQAPGKGLEFVAQINDAGSRTWYATAVKGRATISRDNGQTTVRLQLNNLRAEDTGTYYCTRGSGYVGAGAIDAWGHGTEVIVS
VL: AALTQPSSVSANPGETVKITCSGGSGYYGWYQQQKSPGSAPVTVIYQNDKRPSDIPSRFSGSGSGSTNTLTITGVQAEDEAVYFCGRYDSTDSGIFGAGTTLTVL
B6: chicken monoclonal antibody #3 (antibody, V domains shown)
VH: AVTLDESGGGLQTPGGALSLVCKASGFTFSGYDMLWVRQAPGKGLEWVAGIGSTGGGTDYGAAVKGRATISRDNGQSTVRLQLNNLRAEDTATYYCAKVAGGCNSGYCRDSPGSIDAWGHGTEVIVS
VL: AVTQQPASVSANPGETVKITCSGGGSRNYYGWYQQKSPGSVPVTVIYYDDQRPSNIPSRFSGALSGSTSTLTITGVQADDEAVYFCGSADSNTYEGSFGAGTTLTVL

Columns and labels:
[1] = target: CAPRIN-1 protein expressed on the cell membrane surface of human cancer cell lines (human) (UniProt Q14444); assay: flow cytometry, hybridoma supernatant on MDA-MB-231V cells
[2] = target: T1, human CAPRIN-1 recombinant protein (human) (UniProt Q14444); assay: ELISA, hybridoma supernatant on plate-coated recombinant CAPRIN-1
T1 sequence: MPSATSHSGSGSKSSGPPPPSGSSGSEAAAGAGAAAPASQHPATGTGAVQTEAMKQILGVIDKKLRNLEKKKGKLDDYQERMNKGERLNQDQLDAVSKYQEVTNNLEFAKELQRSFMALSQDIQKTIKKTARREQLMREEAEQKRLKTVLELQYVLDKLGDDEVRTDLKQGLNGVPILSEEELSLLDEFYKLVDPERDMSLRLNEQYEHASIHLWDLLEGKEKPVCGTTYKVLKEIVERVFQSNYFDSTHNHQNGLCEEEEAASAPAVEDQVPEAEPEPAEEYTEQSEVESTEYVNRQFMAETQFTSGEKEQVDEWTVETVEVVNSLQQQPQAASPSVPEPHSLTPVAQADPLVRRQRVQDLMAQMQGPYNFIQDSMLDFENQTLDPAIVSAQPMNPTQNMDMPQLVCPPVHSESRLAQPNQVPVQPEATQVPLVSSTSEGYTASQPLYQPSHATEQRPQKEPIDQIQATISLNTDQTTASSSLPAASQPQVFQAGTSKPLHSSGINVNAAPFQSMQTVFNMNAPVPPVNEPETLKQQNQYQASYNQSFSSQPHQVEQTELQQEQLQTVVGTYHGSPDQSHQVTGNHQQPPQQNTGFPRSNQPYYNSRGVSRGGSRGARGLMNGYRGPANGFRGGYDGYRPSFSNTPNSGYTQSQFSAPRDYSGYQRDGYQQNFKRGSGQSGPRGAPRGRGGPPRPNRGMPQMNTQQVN

[3] = target: T2, polypeptide of SEQ ID NO: 273 (human); assay: trypsin digestion of antibody-bound reduced alkylated CAPRIN-1, protein A capture, LC-MS
T2 sequence (peptide): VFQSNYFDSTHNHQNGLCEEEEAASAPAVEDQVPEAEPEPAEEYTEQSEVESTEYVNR

Binder | binding [1] | binding [2] | binding [3]
B1 | binds | binds | binds
B2 | binds | – | –
B3 | binds | – | –
B4 | binds | – | –
B5 | binds | – | –
B6 | binds | – | –

Reference: patent US20140308283A1
